Results are given in words; binding and its absence hold for the method and conditions named. In cells and extracts the contact can be indirect. Some entries that bind do so weakly or less than the wild type.
Target: vascular endothelial growth factor receptor 2 (VEGFR2) (human (endogenous in HUVEC)) (UniProt P35968)
Experiment: co-IP

By UniProt entry, the sequences of proteins in these tests, tags left out. Where a name states a change or a piece, a line headed by the entry shows the natural chain unless it says otherwise.
UniProt P05556: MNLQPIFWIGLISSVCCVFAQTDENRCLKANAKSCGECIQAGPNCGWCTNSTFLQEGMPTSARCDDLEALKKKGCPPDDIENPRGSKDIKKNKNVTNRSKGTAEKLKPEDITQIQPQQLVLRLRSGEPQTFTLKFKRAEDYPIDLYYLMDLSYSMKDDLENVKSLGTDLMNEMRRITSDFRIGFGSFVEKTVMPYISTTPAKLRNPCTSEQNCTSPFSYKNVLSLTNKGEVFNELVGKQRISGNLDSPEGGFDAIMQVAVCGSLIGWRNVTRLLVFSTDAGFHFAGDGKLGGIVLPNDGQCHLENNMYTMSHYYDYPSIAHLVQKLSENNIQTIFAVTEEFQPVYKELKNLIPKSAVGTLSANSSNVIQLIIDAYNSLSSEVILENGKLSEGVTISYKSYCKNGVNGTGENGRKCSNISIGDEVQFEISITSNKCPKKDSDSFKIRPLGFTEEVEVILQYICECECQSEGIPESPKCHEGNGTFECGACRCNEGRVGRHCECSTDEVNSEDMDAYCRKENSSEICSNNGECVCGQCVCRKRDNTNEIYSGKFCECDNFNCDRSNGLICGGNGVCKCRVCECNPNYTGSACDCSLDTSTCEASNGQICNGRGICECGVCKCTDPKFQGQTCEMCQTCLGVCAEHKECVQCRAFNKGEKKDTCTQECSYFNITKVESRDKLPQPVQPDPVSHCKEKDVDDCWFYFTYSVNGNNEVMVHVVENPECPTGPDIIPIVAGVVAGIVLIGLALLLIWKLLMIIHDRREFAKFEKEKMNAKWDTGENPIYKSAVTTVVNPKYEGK

- binding: binds
Substance: integrin β1 (ITGB1) (from UniProt P05556 21-798) (receptor)

— doi:10.1101/2021.05.06.442985
